# Measurements from the supplement of paper PMC8728848.
# The list shows a part of the results.
# B1: LysMD3 (Homo sapiens), Q7Z3D4 (protein)
# chain: MAGRHQNRSFPLPGVQSSGQVHAFGNCSDSDILEEDAEVYELRSRGKEKVRRSTSRDRLDDIIVLTKDIQEGDTLNAIALQYCCTVADIKRVNNLISDQDFFALRSIKIPVKKFSSLTETLCPPKGRQTSRHSSVQYSSEQQEILPANDSLAYSDSAGSFLKEVDRDIEQIVKCTDNKRENLNEVVSALTAQQMRFEPDNKNTQRKDPYYGADWGIG
# Experiments:
# Assay in all cases: glycan array binding signal (z-score within array); higher = stronger binding
# Settings in all cases: glycan notation: IUPAC condensed, linker removed
# [1] = biological target: Fuc(a1-3)[Gal3S(b1-4)]GlcNAc
# Procedure, shortened: (§1)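 The binding signal is a Z-score computed within each array. Data were drawn from 3228 arrays in the Consortium for Functional Glycomics database, restricted to those with a known protein sequence. Scores were averaged over arrays of the same protein sequence at different concentrations or buffers, and over linkers, and negative values can be taken as non-binding.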
# [2] = biological target: Fuc(a1-3)[Gal3S(b1-4)]GlcNAc6S
# Procedure, shortened: as §1
# [3] = biological target: Fuc(a1-3)[GalNAc(b1-4)]GlcNAc
# Procedure, shortened: as §1
# [4] = biological target: Fuc(a1-3)[GalNAc(b1-4)]GlcNAc6S
# Procedure, shortened: as §1
# [5] = biological target: Fuc(a1-4)GlcNAc
# Procedure, shortened: as §1
# [6] = biological target: Fuc(b1-3)GlcNAc
# Procedure, shortened: as §1
# [7] = biological target: Gal(a1-2)Gal
# Procedure, shortened: as §1
# [8] = biological target: Gal(a1-3)Gal
# Procedure, shortened: as §1
# [9] = biological target: Gal(a1-3)Gal(b1-3)GlcNAc
# Procedure, shortened: as §1
# [10] = biological target: Gal(a1-3)Gal(b1-3)GlcNAc(b1-2)Man
# Procedure, shortened: as §1
# [11] = biological target: Gal(a1-3)Gal(b1-3)GlcNAc(b1-2)Man(a1-3)[Gal(a1-3)Gal(b1-3)GlcNAc(b1-2)Man(a1-6)]Man(b1-4)GlcNAc(b1-4)GlcNAc
# Procedure, shortened: as §1
# [12] = biological target: Gal(a1-3)Gal(b1-3)GlcNAc(b1-3)GalNAc
# Procedure, shortened: as §1
# [13] = biological target: Gal(a1-3)Gal(b1-3)GlcNAc(b1-6)GalNAc
# Procedure, shortened: as §1
# [14] = biological target: Gal(a1-3)Gal(b1-3)[Fuc(a1-4)]GlcNAc(b1-2)Man(a1-3)[Gal(a1-3)Gal(b1-3)[Fuc(a1-4)]GlcNAc(b1-2)Man(a1-6)]Man(b1-4)GlcNAc(b1-4)GlcNAc
# Procedure, shortened: as §1
# [15] = biological target: Gal(a1-3)Gal(b1-4)Glc
# Procedure, shortened: as §1
# [16] = biological target: Gal(a1-3)Gal(b1-4)GlcNAc
# Procedure, shortened: as §1
# [17] = biological target: Gal(a1-3)Gal(b1-4)GlcNAc(b1-2)Man
# Procedure, shortened: as §1
# [18] = biological target: Gal(a1-3)Gal(b1-4)GlcNAc(b1-2)Man(a1-3)[Gal(a1-3)Gal(b1-4)GlcNAc(b1-2)Man(a1-6)]Man(b1-4)GlcNAc(b1-4)GlcNAc
# Procedure, shortened: as §1
# [19] = biological target: Gal(a1-3)Gal(b1-4)GlcNAc(b1-3)GalNAc
# Procedure, shortened: as §1
# [20] = biological target: Gal(a1-3)Gal(b1-4)GlcNAc(b1-6)GalNAc
# Procedure, shortened: as §1
# [21] = biological target: Gal(a1-3)Gal(b1-4)[Fuc(a1-3)]GlcNAc
# Procedure, shortened: as §1
# [22] = biological target: Gal(a1-3)Gal(b1-4)[Fuc(a1-3)]GlcNAc(b1-2)Man(a1-3)[Gal(a1-3)Gal(b1-4)[Fuc(a1-3)]GlcNAc(b1-2)Man(a1-6)]Man(b1-4)GlcNAc(b1-4)GlcNAc
# Procedure, shortened: as §1
# [23] = biological target: Gal(a1-3)GalNAc
# Procedure, shortened: as §1
# [24] = biological target: Gal(a1-3)[Gal(a1-4)]Gal(b1-4)GlcNAc
# Procedure, shortened: as §1
# [25] = biological target: Gal(a1-4)Gal(b1-3)GlcNAc(b1-2)Man(a1-3)[Gal(a1-4)Gal(b1-3)GlcNAc(b1-2)Man(a1-6)]Man(b1-4)GlcNAc(b1-4)GlcNAc
# Procedure, shortened: as §1
# [26] = biological target: Gal(a1-4)Gal(b1-4)Glc
# Procedure, shortened: as §1
# [27] = biological target: Gal(a1-4)Gal(b1-4)GlcNAc
# Procedure, shortened: as §1
# [28] = biological target: Gal(a1-4)Gal(b1-4)GlcNAc(b1-2)Man(a1-3)[Gal(a1-4)Gal(b1-4)GlcNAc(b1-2)Man(a1-6)]Man(b1-4)GlcNAc(b1-4)GlcNAc
# Procedure, shortened: as §1
# [29] = biological target: Gal(a1-4)Gal(b1-4)GlcNAc(b1-3)Gal(b1-4)Glc
# Procedure, shortened: as §1
# [30] = biological target: Gal(a1-4)GlcNAc
# Procedure, shortened: as §1
# [31] = biological target: Gal(a1-6)Glc
# Procedure, shortened: as §1
# [32] = biological target: Gal(b1-2)Gal
# Procedure, shortened: as §1
# [33] = biological target: Gal(b1-3)Gal
# Procedure, shortened: as §1
# [34] = biological target: Gal(b1-3)Gal(b1-4)GlcNAc
# Procedure, shortened: as §1
# [35] = biological target: Gal(b1-3)GalNAc
# Procedure, shortened: as §1
# [36] = biological target: Gal(b1-3)GalNAc(a1-3)[Fuc(a1-2)]Gal(b1-4)Glc
# Procedure, shortened: as §1
# [37] = biological target: Gal(b1-3)GalNAc(a1-3)[Fuc(a1-2)]Gal(b1-4)GlcNAc
# Procedure, shortened: as §1
# [38] = biological target: Gal(b1-3)GalNAc(b1-3)Gal
# Procedure, shortened: as §1
# [39] = biological target: Gal(b1-3)GalNAc(b1-3)Gal(a1-4)Gal(b1-4)Glc
# Procedure, shortened: as §1
# [40] = biological target: Gal(b1-3)GalNAc(b1-4)Gal(b1-4)Glc
# Procedure, shortened: as §1
# [41] = biological target: Gal(b1-3)GalNAc(b1-4)[Neu5Ac(a2-3)]Gal(b1-4)Glc
# Procedure, shortened: as §1
# [42] = biological target: Gal(b1-3)GlcNAc
# Procedure, shortened: as §1
# [43] = biological target: Gal(b1-3)GlcNAc(a1-3)Gal(b1-4)GlcNAc
# Procedure, shortened: as §1
# [44] = biological target: Gal(b1-3)GlcNAc(a1-6)Gal(b1-4)GlcNAc
# Procedure, shortened: as §1
# [45] = biological target: Gal(b1-3)GlcNAc(b1-2)Man
# Procedure, shortened: as §1
binder,measurement,setting,value
B1,glycan array binding signal (z-score),[1],-0.081
same,glycan array binding signal (z-score),[2],0.211
same,glycan array binding signal (z-score),[3],0.633
same,glycan array binding signal (z-score),[4],-0.521
same,glycan array binding signal (z-score),[5],0.681
same,glycan array binding signal (z-score),[6],0.834
same,glycan array binding signal (z-score),[7],0.763
same,glycan array binding signal (z-score),[8],0.245
same,glycan array binding signal (z-score),[9],-0.104
same,glycan array binding signal (z-score),[10],-0.1
same,glycan array binding signal (z-score),[11],-0.227
same,glycan array binding signal (z-score),[12],0.235
same,glycan array binding signal (z-score),[13],-0.85
same,glycan array binding signal (z-score),[14],-0.72
same,glycan array binding signal (z-score),[15],0.338
same,glycan array binding signal (z-score),[16],0.832
same,glycan array binding signal (z-score),[17],-0.21
same,glycan array binding signal (z-score),[18],0.026
same,glycan array binding signal (z-score),[19],-1.23
same,glycan array binding signal (z-score),[20],-0.489
same,glycan array binding signal (z-score),[21],0.873
same,glycan array binding signal (z-score),[22],-0.767
same,glycan array binding signal (z-score),[23],-0.129
same,glycan array binding signal (z-score),[24],0.649
same,glycan array binding signal (z-score),[25],-0.741
same,glycan array binding signal (z-score),[26],-0.441
same,glycan array binding signal (z-score),[27],0.938
same,glycan array binding signal (z-score),[28],0.66
same,glycan array binding signal (z-score),[29],-0.099
same,glycan array binding signal (z-score),[30],0.113
same,glycan array binding signal (z-score),[31],-0.604
same,glycan array binding signal (z-score),[32],0.006
same,glycan array binding signal (z-score),[33],0.706
same,glycan array binding signal (z-score),[34],-0.097
same,glycan array binding signal (z-score),[35],0.117
same,glycan array binding signal (z-score),[36],-0.337
same,glycan array binding signal (z-score),[37],-0.452
same,glycan array binding signal (z-score),[38],0.183
same,glycan array binding signal (z-score),[39],0.313
same,glycan array binding signal (z-score),[40],0.058
same,glycan array binding signal (z-score),[41],0.659
same,glycan array binding signal (z-score),[42],0.409
same,glycan array binding signal (z-score),[43],-0.284
same,glycan array binding signal (z-score),[44],0.772
same,glycan array binding signal (z-score),[45],1.23

# Reprinted from the entries so far (3 entries):
binder,measurement,setting,value
B1,glycan array binding signal (z-score),[34],-0.097
same,glycan array binding signal (z-score),[35],0.117
same,glycan array binding signal (z-score),[36],-0.337
